# In article PMC11014961:
# Results are given in words; binding and its absence hold for the method and conditions named. A result given as binding can be weak or reduced; the word gives no strength. For some of these results: Where a sequence is shown, tags or fusion partners need not be part of it. For some of these results: In cells and extracts the contact can be indirect.
# T1: phosphorylated H2A.X C-terminal peptide (biotin-…pQEF-OH) (Arabidopsis thaliana)
# T1 sequence (peptide, biotin on the N-terminus; phosphoserine (Sp in SASpQEF)): PSKVGKNKGDIGSASQEF
# How the values were obtained:
# [1] = target: T1, phosphorylated H2A.X C-terminal peptide (biotin-…pQEF-OH) (Arabidopsis thaliana); assay: pull-down; biotinylated H2A.X peptides (25 µg) on Dynabeads MyOne Streptavidin T1; purified proteins added in 50 mM Tris-HCl pH 7.5, 150 mM NaCl, 0.05% NP-40 with PhosStop, 4 °C, 2 h; SDS-PAGE, Coomassie blue; both purified
# [2] = target: GST-tagged deletion 4 of BCP4 SQ/DWD motif (Arabidopsis thaliana); assay: pull-down; co-purification: His6-NBS1 forms and GST fusions co-expressed in E. coli; extract in TBS, 0.1% Triton X-100, 1 mM DTT on magnetic glutathione beads, RT, 1 h; western blot with anti-His and anti-GST
# [3] = target: GST-tagged SQ/DWD motifs of BCP4 (Arabidopsis thaliana); assay: as above
# [4] = target: GST-tagged SQ/DWD motifs of BCP4 (Arabidopsis thaliana); assay: pull-down; independently purified proteins: GST-tagged proteins (5 µg) on magnetic glutathione beads, then 5 µg His6-NBS1, 90 min, RT; 20 mM Tris-HCl pH 7.5, 150 mM NaCl, 1 mM DTT, 0.1% Triton X-100; western blot with anti-His; both purified
molecule,measurement,setting,value
C-terminally His6-tagged BCP4 (Arabidopsis thaliana),binding,[1],binds
"GST-tBRCT domain of BCP4, mutant BCP4M1 (Arabidopsis thaliana) (domain or fragment)",binding,[1],binds
"GST-tBRCT domain of BCP4, mutant BCP4M2 (Arabidopsis thaliana) (domain or fragment)",binding,[1],binds
"GST-tBRCT domain of BCP4, mutant BCP4M3 (Arabidopsis thaliana) (domain or fragment)",binding,[1],binds
"GST-tBRCT domain of BCP4, mutant BCP4M4 (Arabidopsis thaliana) (domain or fragment)",binding,[1],binds
"GST-tBRCT domain of BCP4, mutant BCP4M5 (Arabidopsis thaliana) (domain or fragment)",binding,[1],binds weakly
GST-tagged C-terminal tBRCT domain of BCP1 (Arabidopsis thaliana) (domain or fragment),binding,[1],no binding
GST-tagged N-terminal tBRCT domain of BCP1 (Arabidopsis thaliana) (domain or fragment),binding,[1],no binding
GST-tagged tBRCT domain of BCP4 (Arabidopsis thaliana) (domain or fragment),binding,[1],binds
N-terminally His6-tagged BCP4 (Arabidopsis thaliana),binding,[1],binds
"His-tagged full-length NBS1 (protein, UniProt Q0H8D7 1-542) MVWGLFPVDPLSGEDKYYIFSKGIYKVGRKGCDIIINKDKGVSRIHAELTFDATTVSTSRRNKSSSDTSSFVIRVKDCSKYGTFVKTDLGTKDKVHELSNKEKILQDGDVIAFGTGSAIYRLSLIPLVFYLCPSSETFKVDQPVQDAVSSIGARISPTLSEECTHVLLEPRMQVNEALINAILAKKTIILTNWVMLLAEKSICSEIPGYSQYRPSVMVEEALVDVLELNVREKCLEGFTFVLEPTDTYRFGCSFPSLLEVCGAETVTIEDISSMSQDSQFGEINRMICVIPKSAGDKFGRFKHLSLLSRVNEMDLVCAVFSGNLPSTSLIPPSVVISSSCSTDETVVADSEAEEEETTSSVHMIDATEKAETPEKPAAIVIEDSPVTILEETSNLNEFKSVNLLADTESRGHMDEKNSSDSVTIRRDRNDEAETGKSEIIYTQDLIVRDLRSTRKVQSTGGEGVVDFKRFRKGNVTCGNSFSSLIPFAKDPYKEYDSWDVTDFMKEEKKRKQMEAIAEDLFKTEKARKRGTAGSIRGFLSGS",binding,[2],binds
same,binding,[3],binds
same,binding,[4],binds
